Measurements: PubChem BioAssay AID493014 (National Center for Advancing Translational Sciences (NCATS), 2011)
Out of some 340,000 compounds screened, about 170 (0.05%) were called active. This list was built around the results that the source calls inconclusive (neither active nor inactive); the mix of calls is not that of the screen. The call rests on the fitted dose curve; in most records, active means well fitted inhibition curve with a large enough effect in the signal ratio, with a control signal flat (not every such curve was filed as active); inconclusive means small, poorly fitted or top-dose-only effect, or effect the other way, or a change in a side signal; inactive means flat fitted curve, though single readings scatter; the % refers to the signal ratio. Where the call is inconclusive, the potency comes from a doubtful curve fit.

assay: qHTS Assay to Find Inhibitors of Chronic Active B-Cell Receptor Signaling; conditions: ABC-DLBCL IkBa-CBG/CBR reporter, luminescence ratio (green luciferase fused to IkBa over red control in TMD8 lymphoma cells), 4 h; activity change, negative = inhibition: at 46.1 µM (top of the series);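 on activity change, negative = inhibition: plate controls were basal doxycycline-induced cells for no effect and cells given 10 µM MG132 for full effect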
In short: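 Compounds up to 46 uM were incubated four hours with TMD8 cells whose green CBG68 luciferase is fused to IkappaBalpha; red CBR luminescence normalised the signal, and concentration-effect curves were fitted to fusion, red and ratio data.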
Potency means the concentration at half of the fitted maximal effect.

**Q.** For `CCCCN(C(=O)NC(=O)Nc1ccccc1OC)S(C)(=O)=O`, which activity change, negative = inhibition is on record?
**A.** inconclusive: 3.3%

**Q.** For `CCC(=O)Nc1ccc(S(=O)(=O)NCc2ccco2)cc1`, which activity change, negative = inhibition is on record?
**A.** inconclusive: -18.5%

**Q.** For `COCC1CCCCN1C(=O)c1ccc(OC)c(OC2CCN(C(C)C)CC2)c1` (configuration not stated), which “activity change, negative = inhibition” value is on record?
**A.** inactive: -0.433%

**Q.** For `O=C(NCc1ccc(F)cc1)c1cc2c(s1)CCCC2`, which activity change, negative = inhibition is on record?
**A.** inconclusive: 12.1%

**Q.** Which activity change, negative = inhibition does the source give for `O=S(=O)(Nc1nnc(C2CC2)s1)c1ccccc1` here?
**A.** inconclusive: 11.4%

**Q.** For `Cc1cc(NC(=O)Cc2cccs2)no1`, which “activity change, negative = inhibition” value is on record?
**A.** inactive: 0.112%

**Q.** Which “activity change, negative = inhibition” value does the source give for `Cc1nc(SCC(=O)NC(C)c2ccccc2)c2oc3ccccc3c2n1` (configuration not stated) here?
**A.** inactive: 14.3%

**Q.** For `CCC(C)Sc1ccc(-c2nc3cnccn3c2NC2CCCCC2)cc1` (configuration not stated), which activity change, negative = inhibition is on record?
**A.** inconclusive: 3.07%

**Q.** For `COc1ccc(/C=C/C(=O)NC(=S)NNC(=O)Cc2cccs2)cc1OC`, which “activity change, negative = inhibition” value is on record?
**A.** inactive: -15.7%

**Q.** For `O=C(NCc1ccco1)c1cc(-c2cccs2)on1`, which Potency is on record?
**A.** inconclusive: 22.4 µM [falling, single point]

**Q.** Which “activity change, negative = inhibition” value does the source give for `Cc1[nH]c2ccccc2c1C(=O)C(=O)NC1CC(=O)N(c2cccc(F)c2)C1` (configuration not stated) here?
**A.** inactive: -0.0955%

**Q.** With `Cc1ccc(S(=O)(=O)c2c(N)n(Cc3ccco3)c3nc4ccccc4nc23)cc1` as the compound, how does the activity change, negative = inhibition read?
**A.** inconclusive: 12.3%

**Q.** Which activity change, negative = inhibition does the source give for `CC1CCCC(NS(=O)(=O)c2cc(Br)cnc2N)C1C` (configuration not stated) here?
**A.** inconclusive: 8.4%

**Q.** For `O=C(Cc1csc(NC(=O)Nc2ccc(Cl)cc2)n1)NCc1ccccn1`, which Potency is on record?
**A.** inconclusive: 1.46 µM [rising, full curve, poor fit]

**Q.** For `CCc1ccc(-c2csc3ncn(CC(=O)N4CCOCC4)c(=O)c23)cc1`, which Potency is on record?
**A.** inconclusive: 29.1 µM [falling, single point]

**Q.** With `CCn1ccc(C(=O)Nc2cccc(Cl)c2)n1` as the compound, how does the activity change, negative = inhibition read?
**A.** inconclusive: 3.63%

**Q.** Which activity change, negative = inhibition does the source give for `CCn1nnc2cc(C(=O)OCC(=O)N(C)Cc3cccc(F)c3)ccc21` here?
**A.** inconclusive: 1.89%

**Q.** For `Cc1ccccc1NC(=O)CSC(=O)c1ccccc1`, which Potency is on record?
**A.** inconclusive: 7.31 µM [falling, single point]

**Q.** With `COc1ccc(C(=O)COC(=O)c2cc(S(=O)(=O)N3CCCCC3)ccc2N2CCOCC2)c(OC)c1` as the compound, how does the activity change, negative = inhibition read?
**A.** inconclusive: 12.2%

**Q.** For `CCOC(=O)c1ccc(S(=O)(=O)NC2CCC(C)CC2)cc1` (configuration not stated), which activity change, negative = inhibition is on record?
**A.** inconclusive: 5.3%

**Q.** Which “activity change, negative = inhibition” value does the source give for `CCOC(=O)CNC(=O)Nc1ccccc1C(=O)OC` here?
**A.** inactive: 0.734%

**Q.** For `COc1ccc(N(CC(=O)Nc2cccc(C(=O)O)c2)S(=O)(=O)c2c(C)noc2C)cc1`, which Potency is on record?
**A.** inconclusive: 15.8 µM [falling, partial curve, poor fit]

**Q.** Which activity change, negative = inhibition does the source give for `O=C1NC(Cc2ccccc2)c2nc3cc(F)ccc3c(=O)n2-c2cc(Cl)ccc21` (configuration not stated) here?
**A.** inconclusive: 10.8%

**Q.** With `CC1CCCCC1NC(=O)COC(=O)c1ccc(S(=O)(=O)NCc2ccco2)cc1` (configuration not stated) as the compound, how does the Potency read?
**A.** inconclusive: 32.6 µM [rising, partial curve, poor fit]

**Q.** For `O=C1/C(=C/c2cccs2)SC(=S)N1NS(=O)(=O)c1ccccc1`, which activity change, negative = inhibition is on record?
**A.** inconclusive: 12%

**Q.** With `C=C1CC(C(=O)N/N=C/c2ccccc2)C1` as the compound, how does the Potency read?
**A.** inconclusive: 18.4 µM [falling, single point]

**Q.** For `CCc1ccc(NC(=O)N2CCC(c3ccccc3)C2)cc1` (configuration not stated), which “activity change, negative = inhibition” value is on record?
**A.** inactive: 12.8%

**Q.** With `COc1ccc(-c2cc(=O)c3cc(OC)ccc3o2)cc1` as the compound, how does the activity change, negative = inhibition read?
**A.** inconclusive: 8.32%

**Q.** With `Oc1ccccc1CN1CCCC(N2CCN(c3cccc(C(F)(F)F)c3)CC2)C1` (configuration not stated) as the compound, how does the “activity change, negative = inhibition” value read?
**A.** inactive: -1.36%

**Q.** For `COc1ccc(NC(=O)C(=O)NCCN2CCN(C(=O)c3ccc(C(C)(C)C)cc3)CC2)cc1`, which “activity change, negative = inhibition” value is on record?
**A.** inactive: -10.7%

**Q.** For `COc1ccc(CC(=O)Nc2cccc(C(C)=O)c2)cc1S(=O)(=O)N1CCOCC1`, which activity change, negative = inhibition is on record?
**A.** inconclusive: -0.183%

**Q.** Which Potency does the source give for `Cc1ccsc1C(=O)NNC(=O)c1ccccc1F` here?
**A.** inconclusive: 23.1 µM [falling, single point]

**Q.** Which “activity change, negative = inhibition” value does the source give for `O=C1OC(=O)c2cc([N+](=O)[O-])ccc21` here?
**A.** inactive: -2.2%

**Q.** With `O=C(Cc1ccc([N+](=O)[O-])cc1)Nc1nccs1` as the compound, how does the “activity change, negative = inhibition” value read?
**A.** inactive: 6.86%

**Q.** For `Cc1ccc(NC(=O)CCNS(=O)(=O)c2ccccc2)c(C(=O)c2ccccc2)c1`, which “activity change, negative = inhibition” value is on record?
**A.** inactive: -5.69%

**Q.** With `COc1ccc(NC(=O)CSc2c3c(nc4ccccc24)CCCC3)c(OC)c1` as the compound, how does the activity change, negative = inhibition read?
**A.** inconclusive: -0.776%

**Q.** With `CC1CC(C)CN(C(=O)CCC(=O)Nc2nnc(C3CCCCC3)s2)C1` (configuration not stated) as the compound, how does the activity change, negative = inhibition read?
**A.** inconclusive: 11.7%

**Q.** For `CC(NC(=O)CCCCCN1C(=O)c2ccccc2C1=O)c1ccc2c(c1)CCCC2` (configuration not stated), which “activity change, negative = inhibition” value is on record?
**A.** inactive: 2.99%

**Q.** Which Potency does the source give for `COc1ccc(C(=O)NCCN2C(=O)S/C(=C\c3cccnc3)C2=O)c(OC)c1OC` here?
**A.** inconclusive: 16.4 µM [falling, partial curve, poor fit]

**Q.** For `CC(C)(C)c1ccc(SCCc2cccnc2)cc1`, which activity change, negative = inhibition is on record?
**A.** inconclusive: 10.5%

**Q.** For `Cn1c(-c2ccc(F)cc2)cnc1NCc1cccc(F)c1`, which Potency is on record?
**A.** inconclusive: 25.1 µM [falling, single point]

**Q.** For `Fc1ccc(NC(=S)Nc2cccnc2)cc1Cl`, which “activity change, negative = inhibition” value is on record?
**A.** inactive: 1%

**Q.** For `O=C(CN1CCN(c2ccccc2O)CC1)Nc1ccccc1C(=O)NCCc1ccccc1`, which “activity change, negative = inhibition” value is on record?
**A.** inactive: -2.78%

**Q.** For `Cc1cc[n+](-c2[nH]c(=O)sc2/C=N/N=C(\[O-])c2ccncc2)cc1`, which “activity change, negative = inhibition” value is on record?
**A.** inactive: 2.78%

**Q.** Which “activity change, negative = inhibition” value does the source give for `Cc1ccc(S(=O)(=O)c2c(N)n(/N=C/c3ccco3)c3nc4ccccc4nc23)cc1` here?
**A.** inactive: 8.43%

**Q.** Which activity change, negative = inhibition does the source give for `Cc1ccc(C)c(NC(=O)c2ccccc2NC(=O)C2CCCO2)c1` (configuration not stated) here?
**A.** inconclusive: 0.138%

**Q.** Which Potency does the source give for `CCCCC/C=N\NC(=O)Cc1ccc([N+](=O)[O-])cc1` here?
**A.** inconclusive: 0.411 µM [falling, partial curve]

**Q.** For `CCC1=C2CC[C@H]3C(=O)N(CC)C(=O)[C@H]3[C@H]2[C@@]2(Cc3ccccc3)C(=NCc3ccccc3)OC(=O)N2C1=O`, which activity change, negative = inhibition is on record?
**A.** inconclusive: 1.5%

**Q.** With `COc1ccc(C)cc1NC(=O)C1CCN(C(=O)c2ccc(C(C)(C)C)cc2)CC1` as the compound, how does the “activity change, negative = inhibition” value read?
**A.** inactive: 7.25%

**Q.** With `CCOC(=O)[C@@H]1[C@H]2COc3cc(OC)ccc3[C@@H]2N2C(=O)N(c3ccc(Cl)cc3)C(=O)[C@@]12C` as the compound, how does the Potency read?
**A.** inconclusive: 0.708 µM [rising, full curve]

**Q.** With `CCOc1ccc(OCC)c(NC(=O)CN(c2ccc(C)cc2)S(=O)(=O)c2c(C)noc2C)c1` as the compound, how does the Potency read?
**A.** inconclusive: 1.64 µM [rising, full curve]

**Q.** For `CCC1=NN(C(=O)C(=O)Nc2ccccc2OC)C(O)(C(F)(F)F)C1` (configuration not stated), which Potency is on record?
**A.** inconclusive: 5.62 µM [rising, single point]
